{
  "source": "patent US12121554B2",
  "about": "(priority 2018, dated 2024)",
  "tested_on": "CD8 CAR T cells",
  "format": "cell-based, murine",
  "note": "For at least one compound, name, drawing or mass did not settle the structure.",
  "data": [
    {"compound": "N#CC[C@H](C1CCCC1)n1cc(-c2ncnc3[nH]ccc23)cn1", "note": "[Ruxolitinib]", "values": [
      {"measurement": "effect on IFNβ induced increase in apoptosis", "result": "prevented the IFNβ induced increase in apoptosis"}
    ]}
  ]
}
